Results are given in words; binding and its absence hold for the method and conditions named. Binding seen in cells or lysates may run through a third protein. Some results given as binding are weak or reduced against the parent protein; the word gives no strength.
Key:
[1] = biological target: FLAG-tagged wild-type (WT)-PKR (UniProt P19525); test: co-IP; lysates of WT hmCD40-RAW 264.7 cells (transfected with FLAG-tagged WT-PKR or untransfected), incubated with or without CD154 for 30 min; in certain experiments control or TRAF2 siRNA beforehand; immunoprecipitation with anti-FLAG, anti-TRAF2 C20 or anti-TRAF6 D-10 antibody overnight at 4°C, protein G beads, immunoblot for TRAF2, TRAF6 or FLAG
[2] = biological target: T1, TRAF6 (mouse (endogenous in RAW 264.7)) (UniProt P70196); test: as above
T1 sequence: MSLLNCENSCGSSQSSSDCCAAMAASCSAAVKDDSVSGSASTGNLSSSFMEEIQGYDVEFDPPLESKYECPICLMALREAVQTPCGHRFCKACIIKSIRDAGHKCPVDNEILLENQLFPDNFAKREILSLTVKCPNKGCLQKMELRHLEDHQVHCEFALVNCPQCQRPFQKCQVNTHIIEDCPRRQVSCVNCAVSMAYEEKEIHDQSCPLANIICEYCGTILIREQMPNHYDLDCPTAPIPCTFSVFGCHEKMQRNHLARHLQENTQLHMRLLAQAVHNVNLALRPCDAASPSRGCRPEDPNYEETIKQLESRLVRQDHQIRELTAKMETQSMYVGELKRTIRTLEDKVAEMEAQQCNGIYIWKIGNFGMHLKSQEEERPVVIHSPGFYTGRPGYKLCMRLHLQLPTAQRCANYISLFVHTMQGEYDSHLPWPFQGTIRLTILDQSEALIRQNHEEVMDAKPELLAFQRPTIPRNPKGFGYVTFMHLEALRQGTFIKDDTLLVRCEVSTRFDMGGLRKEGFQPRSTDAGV

Chains of the proteins cited; added tags and fusions are not shown.
UniProt P19525: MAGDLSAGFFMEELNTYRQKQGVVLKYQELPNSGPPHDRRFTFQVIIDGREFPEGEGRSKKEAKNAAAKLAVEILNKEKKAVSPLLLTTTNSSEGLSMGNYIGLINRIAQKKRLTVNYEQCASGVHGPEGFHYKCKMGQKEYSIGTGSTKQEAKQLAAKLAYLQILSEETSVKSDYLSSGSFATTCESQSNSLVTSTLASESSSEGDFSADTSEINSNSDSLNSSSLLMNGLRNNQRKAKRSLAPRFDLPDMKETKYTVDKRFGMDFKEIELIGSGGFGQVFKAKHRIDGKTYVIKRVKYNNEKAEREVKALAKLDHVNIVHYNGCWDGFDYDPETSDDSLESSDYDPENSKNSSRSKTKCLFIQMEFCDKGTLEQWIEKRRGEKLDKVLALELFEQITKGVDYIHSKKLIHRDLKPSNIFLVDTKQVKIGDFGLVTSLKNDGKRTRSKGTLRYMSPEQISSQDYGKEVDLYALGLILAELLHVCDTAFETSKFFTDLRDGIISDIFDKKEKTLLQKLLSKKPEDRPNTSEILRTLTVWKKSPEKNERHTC

binding [1]: binds
binding [2]: binds
B1: TRAF2 (protein, UniProt P39429 1-501)
chain: MAAASVTSPGSLELLQPGFSKTLLGTRLEAKYLCSACKNILRRPFQAQCGHRYCSFCLTSILSSGPQNCAACVYEGLYEEGISILESSSAFPDNAARREVESLPAVCPNDGCTWKGTLKEYESCHEGLCPFLLTECPACKGLVRLSEKEHHTEQECPKRSLSCQHCRAPCSHVDLEVHYEVCPKFPLTCDGCGKKKIPRETFQDHVRACSKCRVLCRFHTVGCSEMVETENLQDHELQRLREHLALLLSSFLEAQASPGTLNQVGPELLQRCQILEQKIATFENIVCVLNREVERVAVTAEACSRQHRLDQDKIEALSNKVQQLERSIGLKDLAMADLEQKVSELEVSTYDGVFIWKISDFTRKRQEAVAGRTPAIFSPAFYTSRYGYKMCLRVYLNGDGTGRGTHLSLFFVVMKGPNDALLQWPFNQKVTLMLLDHNNREHVIDAFRPDVTSSSFQRPVSDMNIASGCPLFCPVSKMEAKNSYVRDDAIFIKAIVDLTGL

Reference: article PMC3749959
